Some results were stated once for a whole list of compounds, not compound by compound.
B1: NMC-103: mouse monoclonal antibody of the IgG1 isotype that binds to NMC-P1 (SEQ ID NO:1); VH SEQ ID NO:36, VL SEQ ID NO:37 (antibody, V domains shown)
VH: EVQLQESGGGLVQPGGSLRLSCTTSGFTFTHYYMSWVRQPPGKALEWLGFIRNKAKGYTAEYSASVKGRFTISRDNSQSILYLQMNTLRPEDSATYYCARDIGDNWGQGTLVTVSS
VL: DIVMTQAAFSNPVTLGTSASISCRSSKNLLHSNGITYLYWYLQRPGQSPQLLISRVSNLASGVPNRFSGSESGTDFTLRISRVEAEDVGVYFCAQLLELPYTFGGGTKLEIK
modifications: mAb NMC-103 Heavy Chain Variable Region; mAb NMC-103 Light Chain Variable Region
B2: NMC-204: mouse monoclonal antibody of the IgG3 isotype that binds to NMC-P2 (SEQ ID NO:2); VH SEQ ID NO:38, VL SEQ ID NO:39 (antibody, V domains shown)
VH: EVQLQESGSVLVRPGASVKLSCKASGDTLSGSWMHWAMQRPGQGLEWIGEIHLNRGTTNYNEKFKGKATVTVDTSSSTAYVDLSSLTSEDSAVYYCARSPGFAYWGQGTLVTVSA
VL: GIVMTQAAPSVPVTPGESVSISCRSSKSLLHSNGNSYLYWFLQRPGQSPQLLIYRMSNLASGVPDRFSGSGSGTAFTLRITRVEAEDVGVYYCMQHLEYPFTFGSGTKLEIK
modifications: mAb NMC-204 Heavy Chain Variable Region; mAb NMC-204 Light Chain Variable Region
B3: NMC-H103 (VH4/VK3): humanized NMC-103 variant, human IgG1, VH4 (SEQ ID NO:299) and VK3 (SEQ ID NO:297) (antibody, V domains shown)
VH: EVQLVESGGGLVQPGPSLRLSCTTSGFTFTHYYMSWVRQAPGKGLEWLGFIRNKAKGYTAEYSASVKGRFTISRDNSKSTLYLQMNSLRAEDTAVYYCARDIGDNWGQGTLVTVSS
VL: DIVMTQTPLSSPVTLGQPASISCRSSKNLLHSNGITYLYWYLQKPGQSPQLLISRVSNLASGVPDRFSGSESGTDFTLKISRVEAEDVGVYFCAQLLELPYTFGGGTKVEIK
modifications: human IgG1 constant regions lacking entries; mAb NMC-H103.VH4Heavy Chain Variable Region; mAb NMC-H103.VK3Light Chain Variable Region

Experiments:
[1] = tested on: human pancreatic cancer MIA PaCa-2 cells; assay: Cell-ELISA on intact cells; format: cell-based; details: intact MIA PaCa-2 cells, saturation curve
Description: Cell-ELISA Methodology: 8,000-10,000 cells/well of a 96-well microplate were grown overnight. The next day, unbound cells were washed off with sterile 1×PBS. The cells in each well were fixed with freshly prepared 4% buffered paraformaldehyde (pH 7.2) for 1 hour followed by 3 washes with 1×PBS. The wells were then blocked with 5% BSA in PBS (100 μl/well) for 2 hours at room temperature. Microplate wells were then washed 5 times with 300 μl of ice cold 1×PBS. MAbs NMC-103, NMC-204 or NMC-303 at 1 μg/mL in 1% BSA/PBS were then incubated with various cancer or normal untransformed cells for 2 hours at room temperature. […] The reaction was stopped by addition of 50 μL of stop solution (ThermoFisher, Cat. No. SS04) to each well and absorbance of each well was measured at OD450 nm. The absorbance value of each experimental well was corrected for the absorbance value obtained from wells treated with isotype-identical mAbs included in each experiment. The results are thus expressed as “relative binding”.
In a 96-well microplate, 15,000 cells/well were cultured overnight. […] The reaction was stopped by addition of 50 μL of stop solution (ThermoFisher, Cat. No. SS04) to each well and absorbance of each well was measured at OD450 nm. The absorbance value of each experimental well was corrected for the absorbance value obtained from wells treated with isotype-identical mAbs included in each experiment.

[2] = tested on: plasma membrane-bound M(H)DM2 on M109 tumor cells; assay: Flow cytometry on freshly excised M109 tumors; format: cell-based, mouse; details: M109 tumors from anti-PD1 treated vs isotype control treated mice

| Molecule | antibody concentration above which cell-ELISA binding reached a plateau (saturation) [1] | increase in binding to hyper-progressive tumors [2] |
| --- | --- | --- |
| B1 | above 50 μg/mL | – |
| B2 | above 50 μg/mL | – |
| B3 | – | more than 25% |

From patent US20220098328A1, “ANTIBODIES TO M(H)DM2/4 AND THEIR USE IN DIAGNOSING AND TREATING CANCER” (NomoCan Pharmaceuticals LLC, priority 2017, published 2022)
